From PubChem BioAssay AID588497 (NMMLSC, 2011)
Among all 360,000 compounds or so, about 780 (0.22%) were called active. Inconclusive results, whose numbers are uncertain, are shown with a selection of clear calls. Rule as the data show it: active = inhibition above about 35% (passing the limit was not always enough); inconclusive = no clear call, values can overlap the other calls.

Each compound was assayed on Botulinum neurotoxin type F light chain protease (Clostridium botulinum) (assay: BoNT/F light chain protease inhibitors, primary screen, biochemical, flow cytometry, MLPCN library (AID 588497; also: plate controls were buffer without enzyme for full effect and enzyme alone for no effect)). Settings: Multiplex microsphere protease cleavage assay, at 10 µM, active compounds read high.
With O=C(NC(=S)Nc1ccccc1[N+](=O)[O-])c1ccccc1Cl the inhibition was inconclusive: -41.2%.
With CC1c2ccccc2N(NC(=O)Cc2ccccc2)C1C (configuration not stated) the inhibition was inconclusive: -53.5%.
With C[C@@H]1OC(C2CCCCC2)N(C)[C@H]2C[C@H]3c4[nH]c5ccccc5c4CCN3C[C@@H]12 (some centres not stated) the inhibition was inactive: -7.1%.
For COCCCn1c(SCC(=O)Nc2ccc(C)cc2)nc2ccccc2c1=O, the inhibition was inactive: -2.5%.
Cc1cccc(-c2cccc(NC(=O)C3CCCN(C(=O)c4csc(C)n4)C3)c2)c1 (configuration not stated) was tested, and the inhibition was inactive: 6.1%.
With O=C(Nc1cccc(Cl)c1)c1ccc2sc([C@H]3C[C@H](O)[C@@H](CO)O3)nc2c1 the inhibition was inactive: -1.6%.
With O=C(CCn1ccc2ccccc21)Nc1ccc(N2CCOCC2)cc1 the inhibition was inactive: -32.9%.
For CCCCn1c(O)c(C(C)=NCCc2c[nH]c3ccccc23)c(=O)[nH]c1=O, the inhibition was inconclusive: -9.9%.
COc1ccc(CNC(=O)COC(=O)Cc2ccsc2)cc1 was tested, and the inhibition was inactive: -6.4%.
For CCOC(=O)C1=CN(Cc2cccc(I)c2)S(=O)(=O)N(C)C1C (configuration not stated), the inhibition was inactive: 2.7%.
Cc1nnc(NC(=O)c2ccccc2NC(=O)c2ccccc2)s1 was tested, and the inhibition was inconclusive: -14.6%.
With CN(c1ccc(O)cc1)c1nc(-c2cccnc2)cs1 the inhibition was inconclusive: -33.1%.
In the case of CC(=NNC(=S)N1CC2CCC(CC2)C1)c1cnccn1, the inhibition is reported as active: 59.4%.
For COc1ccc(CNc2ncc(-c3ccc(F)cc3)n2C)c2ccccc12, the inhibition was inconclusive: 12.8%.
In the case of CC(C)Cc1nnc(NC(=O)CCNC(=O)c2ccccc2Cl)s1, the inhibition is reported as inactive: -5.1%.
For Cc1[nH]c(=O)[nH]c1C(=O)CCCCC(=O)OCC(=O)Nc1ccccn1, the inhibition was active: 69.9%.
Cc1nn(CC(=O)NCCN2CCOCC2)c(=O)c2ccccc12 was tested, and the inhibition was inconclusive: 37.8%.
COc1ccc(OC)c(Nc2ncnc3sccc23)c1 was tested, and the inhibition was inconclusive: 16.2%.
In the case of CC(C)(O)C#Cc1ccc(N2C(c3ccsc3)=Cc3ccc(F)cc3C2c2c[nH]c3ccccc23)cc1 (configuration not stated), the inhibition is reported as inactive: -1.4%.
For C=CCNC(=S)NNC(=O)C(CCCC)CC(O)COCC(C)C (configuration not stated), the inhibition was inconclusive: -67%.
In the case of O=S(=O)(Nc1cccc(-c2nnco2)c1)c1ccc(Cl)cc1, the inhibition is reported as inconclusive: -17.6%.
With COCCCNC(=O)CSc1nc2ccccc2c(=O)n1CCCN1CCCCC1 the inhibition was inactive: 4%.
COc1ccc(CN2CCCCCC2)cc1 was tested, and the inhibition was inconclusive: 11.1%.
With COc1ccccc1CNC(=O)COc1ccccc1C the inhibition was inconclusive: -19.5%.
For CN(C)NC(=S)NC1CC2CCC1C2 (configuration not stated), the inhibition was inconclusive: -8.9%.
With CCOc1ccc(CNC(=O)Nc2ccccc2)cc1 the inhibition was inconclusive: -21.6%.
In the case of COC(=O)C1=C(C)NC2=C(C(=O)CCC2)C1c1ccc(-c2ccsc2C(=O)OC)o1 (configuration not stated), the inhibition is reported as inconclusive: -47.4%.
In the case of CCOCCCNC(=S)N1CCN(c2nc(-c3ccc(F)cc3)cs2)CC1, the inhibition is reported as inconclusive: 10.9%.
CCOC(=O)c1c(C)[nH]c(C(=O)N(C)CC(=O)Nc2ccc(OCC)c(OCC)c2)c1C was tested, and the inhibition was inactive: 0.8%.
C/C(=N/NC(=O)c1cc(-c2cccc([N+](=O)[O-])c2)n[nH]1)c1ccc(Cl)cc1 was tested, and the inhibition was inactive: 1.4%.
Cc1cc(C)cc(NC(=O)NCc2c(-c3ccccc3)noc2C)c1 was tested, and the inhibition was inconclusive: -46.8%.
CCCc1nc(SC)[nH]c(=O)c1C was tested, and the inhibition was inconclusive: -38.4%.
In the case of N#C/C(=C\c1ccc(F)cc1F)S(=O)(=O)c1ccccn1, the inhibition is reported as inconclusive: -15%.
In the case of O=S(=O)(NC1=NCCC1)c1ccc(F)cc1, the inhibition is reported as inconclusive: 26%.
O=C1CN(S(=O)(=O)c2ccc(Cl)cc2)c2ccccc2N1 was tested, and the inhibition was inactive: 20.5%.
For ON=C1c2cc(OCCN3CCCCC3)ccc2-c2ccc(OCCN3CCCCC3)cc21, the inhibition was inconclusive: -60.7%.
With CC(C)CNC(=O)N1c2ccccc2Sc2ccccc21 the inhibition was inconclusive: -56%.
C=CCN1C(=O)c2ccc(C(=O)N(CC)CC(=O)Nc3ccc(OC)cc3)cc2C1=O was tested, and the inhibition was inconclusive: -3.6%.
Nc1nc(C23CC4CC(CC(C4)C2)C3)[nH]c(=O)n1 was tested, and the inhibition was inconclusive: 39.1%.
With CCc1ccc(N(CC(=O)NCc2cccnc2)S(=O)(=O)c2ccccc2)cc1 the inhibition was inconclusive: 4.7%.
O=c1[nH]c(=S)n(CCC2=CCCCC2)c(O)c1C=NCc1cccnc1 was tested, and the inhibition was inactive: -5%.
With COc1ccc(-c2ccnc(-c3ccncc3)n2)cc1 the inhibition was inconclusive: -53.6%.
CCNC(=S)NNC(=O)c1cc(C2CC2)nc2ccccc12 was tested, and the inhibition was inactive: 1.8%.
For COc1cc2c(cc1OC)C(C(=O)Nc1ccc(F)c(Cl)c1)CC(=O)N2 (configuration not stated), the inhibition was inconclusive: 18.9%.
Cc1ccc(NC(=O)C2COc3ccccc3O2)cc1C (configuration not stated) was tested, and the inhibition was inconclusive: 59.2%.
In the case of Cn1c(C(=O)N[C@@H](Cc2ccccc2)C(=O)O)cc2cc(Cl)ccc21, the inhibition is reported as inconclusive: -9.5%.
With COC(=O)c1c(C)oc(C)c1S(=O)(=O)N1CCOCC1 the inhibition was inconclusive: 43.3%.
With O=C(NC12CC3CC(CC(C3)C1)C2)OCCNC1CCCCC1 the inhibition was inconclusive: 63.6%.
With CCOC(=O)c1nc(N/N=C/c2ccccc2)sc1Br the inhibition was inconclusive: -0.1%.
With CC(C)c1ccc(C2/C(=C(/O)c3ccccc3)C(=O)C(=O)N2CCCN2CCOCC2)cc1 (configuration not stated) the inhibition was inconclusive: -2.1%.
For COc1cc(NC(=O)c2ccccc2Cl)c2ncccc2c1, the inhibition was inconclusive: -18.4%.
Cc1cccc(CSc2nnc([C@@H]3CCCN3)o2)c1 was tested, and the inhibition was inconclusive: -37.8%.
With S=c1nc(-c2cc(Cl)cc(Cl)c2)[nH][nH]1 the inhibition was inconclusive: -87.2%.
In the case of Cc1ccc(C(=O)NC2CCCCCC2)cc1N1CCCC1=O, the inhibition is reported as inconclusive: 20.1%.
With N#Cc1cc(-c2ccccc2)nc(NN)n1 the inhibition was inconclusive: -53.6%.
Cc1sc2nc(C)n(/N=C/c3ccccc3)c(=O)c2c1C was tested, and the inhibition was inactive: -1.6%.
In the case of Cc1c(Cl)cccc1Nc1ccccc1C(=O)O, the inhibition is reported as inactive: 5.8%.
In the case of COc1ccc(/C=N/Nc2nc(-c3ccc(C)cc3)c(NC(C)=O)s2)cc1OC, the inhibition is reported as inconclusive: -23.3%.
C/C(=N\Nc1ccccc1)c1cccc(N)c1 was tested, and the inhibition was inconclusive: -48.5%.
In the case of COc1ccc(C(=O)c2cccc(C(=O)c3ccc(OC)c(C)c3)c2)cc1C, the inhibition is reported as inconclusive: -9.2%.
With C=CCN1C(=O)C(CC(=O)Nc2ccccc2)S/C1=N/c1nccs1 (configuration not stated) the inhibition was inconclusive: 128%.
For COc1ccc(Cl)cc1-c1nc(-c2ccncc2)no1, the inhibition was inconclusive: 15.1%.
For O=C1Nc2ccccc2/C1=N\N=C\c1ccc(O)c(O)c1, the inhibition was inactive: -28.7%.
COCc1nnc(NS(=O)(=O)c2ccc(Cl)cc2)s1 was tested, and the inhibition was inconclusive: -17.1%.
In the case of CCOC(=O)C1(C)C=C(Nc2cccc(OC)c2)C(=O)N1c1ccccc1 (configuration not stated), the inhibition is reported as inconclusive: -12.9%.
CCN1CCC(O)(/C=C/c2ccc(C(C)C)cc2)C(C(=O)/C=C/c2ccc(C(C)C)cc2)C1 (configuration not stated) was tested, and the inhibition was inactive: -17.9%.
For Cc1ccc(C)c(NC(=O)CSc2nnc(-c3ccncc3)o2)c1, the inhibition was inconclusive: -49.2%.
With CCCn1c(=O)c2[nH]cnc2n(-c2ccccc2C)c1=O the inhibition was inconclusive: 27.6%.
For NS(=O)(=O)c1ccc(NC(=O)CNC(=O)c2ccc3c(c2)OCO3)cc1, the inhibition was inactive: 0.3%.
In the case of COc1ccc([C@H]2CC(=O)C=C(c3cc(OC)ccc3OC)C2)cc1, the inhibition is reported as inactive: -3%.
Cc1cc(C(=O)O)ccc1NCc1cccnc1 was tested, and the inhibition was inconclusive: 3.1%.
CCCc1cc(NCCN(C)C)n2c(nc3ccccc32)c1C#N was tested, and the inhibition was inconclusive: -16.7%.
With CCN1CCN(Cc2nc3ccc([N+](=O)[O-])cc3c(=O)n2-c2ccc(OC)cc2OC)CC1 the inhibition was inconclusive: -11.1%.
For CCOc1ccccc1C(=O)Nc1ccc(C(=O)c2ccccc2)cc1, the inhibition was inconclusive: -21.8%.
With COc1ccc(NC(=O)Cn2nnc3sc4c(c3c2=O)CC(C)(C)OC4)cc1 the inhibition was inconclusive: 35.4%.
In the case of O=C(CCn1c(SCC(=O)c2ccccc2)nc2ccccc2c1=O)NCc1ccc(F)cc1, the inhibition is reported as inconclusive: 7.5%.
With COc1ccccc1-c1cn[nH]c(=S)n1 the inhibition was inconclusive: 19.2%.
In the case of N#Cc1ccc(S(=O)(=O)N2CCN(CC(=O)NCC3(N4CCOCC4)CCCCC3)CC2)cc1, the inhibition is reported as inactive: -2.8%.
For O=C(c1cc(F)ccc1F)C1CCCN(Cc2cc(Cl)ccc2O)C1 (configuration not stated), the inhibition was inconclusive: 16.3%.
In the case of Cc1sc(NC(=O)C2CSC3(C)CCC(=O)N23)nc1-c1ccccc1 (configuration not stated), the inhibition is reported as inconclusive: 2.5%.
With CCN(CC)c1ccc2cc(-c3nc4ccccc4n3C)c(=O)oc2c1 the inhibition was inactive: 0.3%.
With Cc1nc(SCC(=O)NCC2CCCO2)c2cc(-c3ccccc3)sc2n1 (configuration not stated) the inhibition was inactive: 17.4%.
In the case of O=C1c2ccccc2C(=O)N1c1ccc(Cc2ccncc2)cc1, the inhibition is reported as inconclusive: -49.8%.
With CN(c1ccccc1)c1nc(N)c([N+](=O)[O-])c(N2CCOCC2)n1 the inhibition was inconclusive: -69.6%.
In the case of O=C(NCC1CCCO1)c1cccc(C(=O)NCC2CCCO2)c1 (configuration not stated), the inhibition is reported as inconclusive: -2%.
For O=C1C(c2ccccc2)=C(N2CC2)c2ccccc21, the inhibition was inactive: -0.6%.
With O=C(NC1CCN(Cc2ccccc2)CC1)c1ccc2c(c1)OCCCO2 the inhibition was inconclusive: 97%.
For COc1ccc(NC(=O)c2cc3c(CO)cnc(C)c3oc2=Nc2cc(OC)cc(OC)c2)cc1, the inhibition was inconclusive: -2.9%.
With COc1ccc(S(=O)(=O)N2CCCCC2)cc1NC(=O)Cc1cccc(C(F)(F)F)c1 the inhibition was inconclusive: 11.7%.
For O=C1CNC(=S)N1CCOc1ccccc1, the inhibition was inconclusive: -21.9%.
With COc1cc(/C=N/NC(=O)c2cc(-c3ccccc3Cl)nc3ccccc23)cc(OC)c1O the inhibition was inconclusive: 69.3%.
With CCOC(=O)c1cnn2c1[nH]c(=O)c1ccccc12 the inhibition was inactive: -21%.
